Structures can show the parent of a compound that is named as a salt. This is one part of the list. Most values lie at the level of the controls, where differences are scatter.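 Reh, a human leukemia cell line, is read out by flow cytometry as the median γH2AX antibody signal in S-phase cells; the score counts standard deviations from the median difference of each paired plate set. Scores above 2.5 were candidate hits; scores below -2 mark compounds lowering MK1775-induced damage.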

The test system of the assay is Reh. Put plainly: Z' of S-phase gammaH2AX difference (drug + MK1775 minus drug alone) (Z-score); higher = stronger synergistic S-phase DNA damage with MK1775. The following applies: MK1775 concentration 400 nM; first compound 10 µM; 4 h.
Regarding `CC(C)OC(=O)C1=CN(C(=O)c2ccc(F)c(F)c2)CC(C)(C)c2c1[nH]c1ccccc21` + C=CCn1c(=O)c2cnc(Nc3ccc(N4CCN(C)CC4)cc3)nc2n1-c1cccc(C(C)(C)O)n1 [MK1775], the “Z' of S-phase gammaH2AX difference (Z-score)” value is inactive: 0.458. Next, `CC[C@H](CO)Nc1nc(NCc2ccccc2)c2ncn(C(C)C)c2n1` [Roscovitine (Seliciclib, CYC202)] + C=CCn1c(=O)c2cnc(Nc3ccc(N4CCN(C)CC4)cc3)nc2n1-c1cccc(C(C)(C)O)n1 [MK1775]: inactive: -0.743. Under `CC[C@H](CO)Nc1nc(NCc2ccccc2)c2ncn(C(C)C)c2n1` [Roscovitine] + C=CCn1c(=O)c2cnc(Nc3ccc(N4CCN(C)CC4)cc3)nc2n1-c1cccc(C(C)(C)O)n1 [MK1775] stands inactive: -2.39; under `Cc1ccc(NC(=O)c2cccc(C(C)(C)C#N)c2)cc1Nc1ccc2ncn(C)c(=O)c2c1` + C=CCn1c(=O)c2cnc(Nc3ccc(N4CCN(C)CC4)cc3)nc2n1-c1cccc(C(C)(C)O)n1 [MK1775], inactive: 0.327; under `OCCN(CCO)c1nc(N2CCCCC2)c2nc(N(CCO)CCO)nc(N3CCCCC3)c2n1` [Dipyridamole] + C=CCn1c(=O)c2cnc(Nc3ccc(N4CCN(C)CC4)cc3)nc2n1-c1cccc(C(C)(C)O)n1 [MK1775], inactive: 0.0121.

As for `C[N+](C)(C)CC(=O)O` [Betaine hydrochloride] + C=CCn1c(=O)c2cnc(Nc3ccc(N4CCN(C)CC4)cc3)nc2n1-c1cccc(C(C)(C)O)n1 [MK1775], the “Z' of S-phase gammaH2AX difference (Z-score)” value is inactive: -0.367. Next, `N[C@@H](CS(=O)O)C(=O)O` [L-Cysteinesulfinic Acid] + C=CCn1c(=O)c2cnc(Nc3ccc(N4CCN(C)CC4)cc3)nc2n1-c1cccc(C(C)(C)O)n1 [MK1775]: inactive: 0.167; `COC(=O)[C@H](NC(=O)c1cc(-c2ccccc2)nc2ccccc12)c1ccccc1` + C=CCn1c(=O)c2cnc(Nc3ccc(N4CCN(C)CC4)cc3)nc2n1-c1cccc(C(C)(C)O)n1 [MK1775]: inactive: -0.299; `N#Cc1cc2nc(O)c(O)nc2cc1[N+](=O)[O-]` [CNQX disodium] + C=CCn1c(=O)c2cnc(Nc3ccc(N4CCN(C)CC4)cc3)nc2n1-c1cccc(C(C)(C)O)n1 [MK1775]: inactive: 0.401. Under `C[C@@H](CN1CCC(Cc2ccccc2)CC1)[C@@H](O)c1ccc(O)cc1` [Ro 25-6981 hydrochloride] + C=CCn1c(=O)c2cnc(Nc3ccc(N4CCN(C)CC4)cc3)nc2n1-c1cccc(C(C)(C)O)n1 [MK1775] stands inactive: 0.495; under `Cc1cc(NC(=O)Nc2ccc3c(ccn3C)c2)sn1` + C=CCn1c(=O)c2cnc(Nc3ccc(N4CCN(C)CC4)cc3)nc2n1-c1cccc(C(C)(C)O)n1 [MK1775], inactive: 1.29; under `Cc1ccc(=O)n(-c2ccccc2)c1` [Pirfenidone] + C=CCn1c(=O)c2cnc(Nc3ccc(N4CCN(C)CC4)cc3)nc2n1-c1cccc(C(C)(C)O)n1 [MK1775], inactive: -0.757.

With `O=C(Cc1ccc(Cl)c(Cl)c1)OCCN1CCCC1` [AC 915 oxalate] + C=CCn1c(=O)c2cnc(Nc3ccc(N4CCN(C)CC4)cc3)nc2n1-c1cccc(C(C)(C)O)n1 [MK1775], the “Z' of S-phase gammaH2AX difference (Z-score)” value was inactive: -0.257. Under `O=C(/C=C/c1ccc(O)cc1)c1ccc(O)cc1O` [Isoliquiritigenin] + C=CCn1c(=O)c2cnc(Nc3ccc(N4CCN(C)CC4)cc3)nc2n1-c1cccc(C(C)(C)O)n1 [MK1775] stands inactive: -0.449; under `N#CCNC(=O)c1ccc(-c2ccnc(Nc3ccc(N4CCOCC4)cc3)n2)cc1` + C=CCn1c(=O)c2cnc(Nc3ccc(N4CCN(C)CC4)cc3)nc2n1-c1cccc(C(C)(C)O)n1 [MK1775], inactive: -1.14; under `CN(C)CCCN=c1c2ccccc2n(C)c2[nH]c(=O)n(C)c(=O)c12` + C=CCn1c(=O)c2cnc(Nc3ccc(N4CCN(C)CC4)cc3)nc2n1-c1cccc(C(C)(C)O)n1 [MK1775], inactive: -0.175. Next, `Nc1cc(=O)[nH]c(N)n1` [2,6-Diamino-4-pyrimidinone] + C=CCn1c(=O)c2cnc(Nc3ccc(N4CCN(C)CC4)cc3)nc2n1-c1cccc(C(C)(C)O)n1 [MK1775]: inactive: 1.49; `N[C@@H](Cc1c[nH]c2ccccc12)C(=O)O` [L-Tryptophan] + C=CCn1c(=O)c2cnc(Nc3ccc(N4CCN(C)CC4)cc3)nc2n1-c1cccc(C(C)(C)O)n1 [MK1775]: inactive: 0.0988; `COC1(C2=NCCN2)COc2ccccc2O1` (configuration not stated) + C=CCn1c(=O)c2cnc(Nc3ccc(N4CCN(C)CC4)cc3)nc2n1-c1cccc(C(C)(C)O)n1 [MK1775]: inactive: -0.0131.

As for `CC(C)NC[C@@H](O)COc1ccc(CC(N)=O)cc1` [R(+)-Atenolol] + C=CCn1c(=O)c2cnc(Nc3ccc(N4CCN(C)CC4)cc3)nc2n1-c1cccc(C(C)(C)O)n1 [MK1775], the “Z' of S-phase gammaH2AX difference (Z-score)” value was inactive: -0.431.

For the compound `COc1cc2nccc(Oc3ccc(NC(=O)NC4CC4)c(Cl)c3)c2cc1C(N)=O` [E7080 (Lenvatinib)] + C=CCn1c(=O)c2cnc(Nc3ccc(N4CCN(C)CC4)cc3)nc2n1-c1cccc(C(C)(C)O)n1 [MK1775], the “Z' of S-phase gammaH2AX difference (Z-score)” value was inactive: -0.288.

As to `CCn1c(=O)[nH]c2cc(Cl)c(Cl)cc21` + C=CCn1c(=O)c2cnc(Nc3ccc(N4CCN(C)CC4)cc3)nc2n1-c1cccc(C(C)(C)O)n1 [MK1775], the “Z' of S-phase gammaH2AX difference (Z-score)” value was inactive: -0.172.

For `CN1C(=O)CC[C@H]1c1cccnc1` [(-)-Cotinine] + C=CCn1c(=O)c2cnc(Nc3ccc(N4CCN(C)CC4)cc3)nc2n1-c1cccc(C(C)(C)O)n1 [MK1775], the “Z' of S-phase gammaH2AX difference (Z-score)” value was inactive: 0.675. Under `CC[C@@H]1C(=O)OC[C@@H]1Cc1cncn1C` [Pilocarpine nitrate] + C=CCn1c(=O)c2cnc(Nc3ccc(N4CCN(C)CC4)cc3)nc2n1-c1cccc(C(C)(C)O)n1 [MK1775] stands inactive: -0.349. Under `CC[C@@H]1C(=O)OC[C@@H]1Cc1cncn1C` [(+)-Pilocarpine hydrochloride] + C=CCn1c(=O)c2cnc(Nc3ccc(N4CCN(C)CC4)cc3)nc2n1-c1cccc(C(C)(C)O)n1 [MK1775] stands inactive: -0.267; under `CSC(=N)NCCC[C@H](N)C(=O)O` [S-Methyl-L-thiocitrulline acetate] + C=CCn1c(=O)c2cnc(Nc3ccc(N4CCN(C)CC4)cc3)nc2n1-c1cccc(C(C)(C)O)n1 [MK1775], inactive: 0.98. Under `O=c1oc2c(O)c(O)cc3c(=O)oc4c(O)c(O)cc1c4c23` [Ellagic acid] + C=CCn1c(=O)c2cnc(Nc3ccc(N4CCN(C)CC4)cc3)nc2n1-c1cccc(C(C)(C)O)n1 [MK1775] stands inactive: 0.0436; under `NS(=O)(=O)c1cc2c(cc1Cl)NC(C1CC3C=CC1C3)NS2(=O)=O` (configuration not stated) [Cyclothiazide] + C=CCn1c(=O)c2cnc(Nc3ccc(N4CCN(C)CC4)cc3)nc2n1-c1cccc(C(C)(C)O)n1 [MK1775], inactive: 0.337; under `S=C(S)N1CCCC1` [Ammonium pyrrolidinedithiocarbamate] + C=CCn1c(=O)c2cnc(Nc3ccc(N4CCN(C)CC4)cc3)nc2n1-c1cccc(C(C)(C)O)n1 [MK1775], inactive: 0.437.

`CCN(CC)CC(=O)Nc1c(C)cccc1C` [Lidocaine hydrochloride] + C=CCn1c(=O)c2cnc(Nc3ccc(N4CCN(C)CC4)cc3)nc2n1-c1cccc(C(C)(C)O)n1 [MK1775]: the “Z' of S-phase gammaH2AX difference (Z-score)” value was inactive: -0.534. Under `c1ccc2c(CC3=NCCN3)cccc2c1` [Naphazoline hydrochloride] + C=CCn1c(=O)c2cnc(Nc3ccc(N4CCN(C)CC4)cc3)nc2n1-c1cccc(C(C)(C)O)n1 [MK1775] stands inactive: -0.573; under `O=C(O)[C@@H]1C[C@H](C(=O)O)N1` [cis-Azetidine-2,4-dicarboxylic acid] + C=CCn1c(=O)c2cnc(Nc3ccc(N4CCN(C)CC4)cc3)nc2n1-c1cccc(C(C)(C)O)n1 [MK1775], inactive: -0.157. Next, `CC(C=CC(=O)NO)=CC(C)C(=O)c1ccc(N(C)C)cc1` (configuration not stated) [Trichostatin A (TSA)] + C=CCn1c(=O)c2cnc(Nc3ccc(N4CCN(C)CC4)cc3)nc2n1-c1cccc(C(C)(C)O)n1 [MK1775]: inactive: 0.0776; `Nc1ncnc2c1nc(Br)n2C1OC2COP(=O)(O)O[C@@H]2C1O` (some centres not stated) [8-Bromo-cAMP sodium] + C=CCn1c(=O)c2cnc(Nc3ccc(N4CCN(C)CC4)cc3)nc2n1-c1cccc(C(C)(C)O)n1 [MK1775]: inactive: 0.0334; `Ic1ccc(N2CCN(Cc3c[nH]c4ncccc34)CC2)cc1` [L-750,667 trihydrochloride] + C=CCn1c(=O)c2cnc(Nc3ccc(N4CCN(C)CC4)cc3)nc2n1-c1cccc(C(C)(C)O)n1 [MK1775]: inactive: 1.55. Under `O=C(Nc1cccc(C(=O)Nc2ccc(S(=O)(=O)O)c3cc(S(=O)(=O)O)cc(S(=O)(=O)O)c23)c1)Nc1cccc(C(=O)Nc2ccc(S(=O)(=O)O)c3cc(S(=O)(=O)O)cc(S(=O)(=O)O)c23)c1` + C=CCn1c(=O)c2cnc(Nc3ccc(N4CCN(C)CC4)cc3)nc2n1-c1cccc(C(C)(C)O)n1 [MK1775] stands inactive: 1.31; under `COc1cccc2c1C(=O)c1c(O)c3c(c(O)c1C2=O)C[C@@](O)(C(C)=O)C[C@@H]3O[C@H]1C[C@H](N)[C@H](O)[C@H](C)O1` [Daunorubicin HCl (Daunomycin HCl)] + C=CCn1c(=O)c2cnc(Nc3ccc(N4CCN(C)CC4)cc3)nc2n1-c1cccc(C(C)(C)O)n1 [MK1775], inactive: -0.835.
